Measured values reported in PMC10238197, “Deafness‐Associated ADGRV1 Mutation Impairs USH2A Stability through Improper Phosphorylation of WHRN and WDSUB1 Recruitment” (Advanced Science, 2023).
These are yes or no findings as the source states them, for the method shown. For some of these results: In cells and extracts the contact can be indirect. Some binding calls cover weakened binding; strength is not graded here. For some of these results: Sequences can lack the tags named with a protein.

T1: ADGRV1-CTF (C-terminal fragment, aa 5884-6298) (mouse) (UniProt Q8VHN7)
T1 sequence: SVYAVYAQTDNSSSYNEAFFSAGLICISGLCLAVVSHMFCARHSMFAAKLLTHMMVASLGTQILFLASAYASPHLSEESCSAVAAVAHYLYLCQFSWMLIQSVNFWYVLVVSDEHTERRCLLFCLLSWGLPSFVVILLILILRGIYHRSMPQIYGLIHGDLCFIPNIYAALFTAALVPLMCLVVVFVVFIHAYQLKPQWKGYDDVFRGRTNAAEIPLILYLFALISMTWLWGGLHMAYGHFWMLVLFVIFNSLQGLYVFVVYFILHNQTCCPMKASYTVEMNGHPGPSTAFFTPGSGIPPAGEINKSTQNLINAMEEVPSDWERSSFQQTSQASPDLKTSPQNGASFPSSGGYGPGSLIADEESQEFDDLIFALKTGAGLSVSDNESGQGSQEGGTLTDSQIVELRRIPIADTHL

T2: WHRN-PDZ1 domain, purified (mouse) (UniProt Q80VW5)
T2 sequence: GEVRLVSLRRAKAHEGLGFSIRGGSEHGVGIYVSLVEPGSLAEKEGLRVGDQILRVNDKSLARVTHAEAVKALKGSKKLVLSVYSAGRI


What was measured:
[1] = target: T1, ADGRV1-CTF (C-terminal fragment, aa 5884-6298) (mouse); experiment: co-IP; cotransfected HEK293 cells, starved 12 h, lysed in 50 mM Tris-HCl pH 7.4, 150 mM NaCl, 1% Triton, 1% NP-40, 2 mM EDTA; anti-Flag M2 or anti-Myc antibody-conjugated agarose, 4 °C overnight; blots against the tags
[2] = target: Flag-ADGRV1a Y6236fsX1 mutant (mouse) (UniProt Q8VHN7); experiment: as above
[3] = target: Flag-ADGRV1a (adhesion G protein-coupled receptor V subfamily member 1, isoform a, aa 4333-6298) (mouse) (UniProt Q8VHN7); experiment: as above
[4] = target: T2, WHRN-PDZ1 domain, purified (mouse); experiment: ITC; ITC200; purified PDZ protein 50 uM, peptide 1 mM; 20 mM Tris, 200 mM NaCl, 2 mM EDTA, pH 7.4; both purified

Binder | binding [1] | binding [2] | binding [3] | binding [4]
Myc-WHRN (whirlin) (protein, UniProt Q80VW5 1-918) MNAQLDGLSVSSSSTGSLGSAAAAAGGGGGAGLRLLSANVRQLHQALTALLSEPEREQFTHCLNAYHARRNVFDLVRTLRVLLDSPVKRRLLPMLRLVIPRSDQLLFDQYTAEGLYLPATTPYRQPAWAAPDGAGPGEVRLVSLRRAKAHEGLGFSIRGGSEHGVGIYVSLVEPGSLAEKEGLRVGDQILRVNDKSLARVTHAEAVKALKGSKKLVLSVYSAGRIPGGYVTNHIYTWVDPQGRSTSPPSSLPQPHGSTLRQREDDRRSTLHLLQSGDEKKVNLVLGDGRSLGLTIRGGAEYGLGIYITGVDPGSEAESSGLKVGDQILEVNGRSFLNILHDEAVKLLKSSRHLILTVKDVGRLPHARTTVDQTKWIASSRIGESVANSAGFPGDHTEEGTSKPGFYKGPAGSQVTLSSLGNQTRALLDDQARHLLTEQERATMMYYLAQYRGGTISVEAMVMALFELLNTHAKFSLLSEVRSIISPQDLDRFDHLVLRREIESMKARQPPGPGVGDTYSMVSYSDTGSSTGSHGTSTTVSSARERLLWLIDLMENTLDLEGTGETTQGSTNALPDVSVDDVKSPSEDLPGIKPPPPPPPLAQGHDRLLGQPRKPGREDPAPLSSAAHSGIVFSAPRNRSPPPGTAPTPGPSSAQDSPSSPIYASISHANPSSRKPLDTHLALVNQHPIGPFPRVQSPPHLKSPPAETPGAGACLPPPSPSEHPDAVGANQHFVLVEVHRPDSEPDVNEVRALPQTRTASTLSQLSDSGQTLSEDSGVDAGETEASTSGRGRQTASAKNKNGKEQPRTERTAEGANKPPGLLEPTSTLVRVRKSAATLGIAIEGGANTRQPLPRIVTIQRGGSAHNCGQLKVGHVILEVNGQTLRGKEHKEAARIIAEAFKTKERDYIDFLVTEFNVML | binds | no binding | binds | –
RRIPIADTHL (peptide, UniProt Q8VHN7 6289-6298) [ADGRV1p, 10-residue C-terminal tail peptide of ADGRV1 harboring the PDZ-binding motif] | – | – | – | no binding (tested: peptide 1 mM titrated with protein 50 uM)
